Test results published in publication PMC6131546.
No constants are given. Whether binding was seen depends on the method and setting. For some of these results: In cells and extracts the contact can be indirect. Some entries that bind do so weakly or less than the wild type.

By UniProt entry, the sequences of proteins in these tests, tags left out.
UniProt O95166: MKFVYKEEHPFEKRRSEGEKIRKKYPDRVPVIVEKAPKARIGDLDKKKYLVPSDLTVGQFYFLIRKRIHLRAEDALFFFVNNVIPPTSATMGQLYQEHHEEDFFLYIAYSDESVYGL
UniProt P60520: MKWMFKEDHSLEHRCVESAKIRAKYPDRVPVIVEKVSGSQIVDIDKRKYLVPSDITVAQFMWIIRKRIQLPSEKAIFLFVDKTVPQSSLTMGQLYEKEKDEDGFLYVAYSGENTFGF

What was measured:
[1] = target: human GABARAP in pLexA (human) (UniProt O95166); test: two-hybrid; co-transformation of pLexA bait and pB42AD prey into EGY48; induced condition (SD/-Leu-His-Trp-Ura with galactose, raffinose and X-gal), 30 °C, blue colonies; strength by the days until the colony turns blue; liquid β-galactosidase activity for some pairs
[2] = target: human GATE-16 (GABARAPL2) in pLexA (human) (UniProt P60520); test: as above
[3] = target: FLAG-TBC1D9Bα from a stable HEK293 cell line (human) (UniProt Q66K14); test: co-IP; lysates (1% NP-40 lysis buffer) of HCT116 or HEK293 cells, anti-FLAG M2 affinity gel overnight, immunoblot with anti-LC3B or anti-GFP

| Substance | binding [1] | binding [2] | binding [3] |
| --- | --- | --- | --- |
| GFP-fused GABARAP expressed in HEK293 cells (from UniProt O95166 1-117) | – | – | binds |
| GFP-fused LC3A expressed in HEK293 cells (from UniProt Q9H492 1-121) | – | – | binds |
| full length TBC1D9Bα in pB42AD (from UniProt Q66K14-1 1-1250) | binds | binds | – |

More lines, now with the values ahead:

| binding [1] | binding [2] | binding [3] | Substance |
| --- | --- | --- | --- |
| binds | binds | – | ATG8 interaction domain (AID) of TBC1D9B, amino acids 1112-1250, in pB42AD (from UniProt Q66K14-1 1112-1250) (domain or fragment) |
| – | – | binds | GFP-fused GATE-16 expressed in HEK293 cells (from UniProt P60520 1-117) |
